Measured data: PubChem BioAssay AID493246 (Drosophila RNAi Screening Center, 2011)

Aim: 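Identify essential fly genes by loss of cell viability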 (primary screen)
Cells: Drosophila Kc and S2R+ cells
Reagents: long dsRNA against Drosophila genes
Detection: 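Raw, unnormalised count of remaining cells in each well; per-plate z-scores of cell number underlie the calls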
Reading the numbers: Kc cell number and S2R+ cell number: higher = more cells remaining
Call rule: 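Counted as a hit if cell number falls by a z-score of at least 3 within its plate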
The screen tested about 21,000 reagents; this is an unselected part of those with a known target gene and a result. Of all reagents, 429 (2%) were called active. 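Values are raw and not normalised between plates; calls rest on per-plate z-scores that were not deposited.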 Names joined by + are all predicted targets of the reagent. Not stated in the record: the amount of reagent, the time to read-out.

no.	gene	amplicon	Kc cell number, rep 1	Kc cell number, rep 2	S2R+ cell number, rep 1	S2R+ cell number, rep 2	Outcome
1	CG10333	DRSC02036	1.37e6	1.51e6	1.14e6	1.08e6	inactive
2	CG9592	DRSC11078	1.54e6	1.75e6	1.29e6	1.55e6	inactive
3	stj	DRSC06124	1.44e6	1.60e6	7.59e5	1.07e6	inactive
4	Menl-2 + Menl-1	DRSC07469	1.65e6	1.72e6	1.31e6	1.55e6	inactive
5	Menl-2 + Menl-1	DRSC07470	1.61e6	1.60e6	1.20e6	1.38e6	inactive
6	CG10214	DRSC14213	1.54e6	1.56e6	1.23e6	1.34e6	inactive
7	CG42680	DRSC01399	1.65e6	1.67e6	9.84e5	1.21e6	inactive
8	CG4891	DRSC01936	1.32e6	1.36e6	1.33e6	1.35e6	inactive
9	trn	DRSC11407	1.40e6	1.66e6	1.24e6	1.30e6	inactive
10	Obp83a	DRSC12362	1.58e6	1.71e6	1.24e6	1.46e6	inactive
11	Oseg2	DRSC08343	1.64e6	1.54e6	9.62e5	1.40e6	inactive
12	Wdfy2	DRSC02822	1.39e6	1.42e6	1.19e6	1.28e6	inactive
13	CG31223	DRSC15115	1.63e6	1.60e6	1.27e6	1.32e6	inactive
14	CG8086	DRSC03078	1.39e6	1.65e6	4.39e5	3.06e5	inactive
15	CG8086	DRSC03079	1.49e6	1.59e6	1.22e6	1.33e6	inactive
16	CG7448 (retired record)	DRSC11828	1.63e6	1.63e6	1.19e6	1.28e6	inactive
17	Gr59e	DRSC04276	1.46e6	1.54e6	1.32e6	1.32e6	inactive
18	AANATL4	DRSC06774	1.52e6	1.57e6	1.11e6	1.24e6	inactive
19	rho-4	DRSC19761	5.97e5		7.91e5		inactive
20	rho-4	DRSC19762	1.58e6	1.61e6	1.05e6	1.19e6	inactive
21	CG9360	DRSC20180	1.73e6	1.56e6	1.05e6	1.12e6	inactive
22	Spn31A	DRSC02780	1.47e6	1.50e6	1.27e6	1.37e6	inactive
23	rump	DRSC16480	1.39e6	1.40e6	1.26e6	1.34e6	inactive
24	Las	DRSC11772	1.33e6	1.42e6	1.26e6	1.26e6	inactive
25	sqa	DRSC06693	1.32e6	1.33e6	1.05e6	1.10e6	inactive
26	Fer2LCH	DRSC16672	1.42e6	1.40e6	9.44e5	1.05e6	inactive
27	Boh2	DRSC02777	1.57e6	1.63e6	1.26e6	1.44e6	inactive
28	Ugt317A1	DRSC04470	1.67e6	1.78e6	1.24e6	1.36e6	inactive
29	CG1529	DRSC20515	1.30e6	1.24e6	9.73e5	1.13e6	inactive
30	CG1113	DRSC12163	1.62e6	1.68e6	1.30e6	1.49e6	inactive
31	ewg	DRSC18773	1.57e6	1.60e6	1.12e6	1.26e6	inactive
32	Obp57c	DRSC06384	1.69e6	1.65e6	1.24e6	1.39e6	inactive
33	e(y)2	DRSC19640	1.59e6	1.50e6	9.70e5	1.04e6	inactive
34	CG15431	DRSC00446	1.42e6	1.40e6	1.10e6	1.23e6	inactive
35	cGlr2	DRSC04017	1.36e6	1.45e6	6.47e5	7.93e5	active
36	CG10710	DRSC09784	1.32e6	1.34e6	1.37e6	1.45e6	inactive
37	CG5781	DRSC02893	1.64e6	1.66e6	1.34e6	1.44e6	inactive

Entries listed so far called active, once more:
gene	amplicon	Kc cell number, rep 1	Kc cell number, rep 2	S2R+ cell number, rep 1	S2R+ cell number, rep 2	Outcome
cGlr2	DRSC04017	1.36e6	1.45e6	6.47e5	7.93e5	active

The listing continues.
no.	gene	amplicon	Kc cell number, rep 1	Kc cell number, rep 2	S2R+ cell number, rep 1	S2R+ cell number, rep 2	Outcome
38	CG5071	DRSC15710	1.63e6	1.57e6	1.02e6	1.10e6	inactive
39	CG8675	DRSC20117	1.45e6	1.55e6	1.05e6	1.14e6	inactive
40	yellow-e2	DRSC15169	1.31e6	1.47e6	1.06e6	1.23e6	inactive
41	fu	DRSC20333	1.34e6	1.39e6	8.97e5	1.01e6	inactive
42	CG11634	DRSC03700	1.48e6	1.54e6	1.30e6	3.47e5	inactive
43	CG13066	DRSC09949	1.37e6	1.56e6	1.29e6	1.42e6	inactive
44	CG6171	DRSC15982	1.57e6	1.66e6	1.25e6	1.35e6	inactive
45	Pfdn5	DRSC16183	1.47e6	1.58e6	1.14e6	1.19e6	inactive
46	Vm26Ab	DRSC03473	1.52e6	1.55e6	1.11e6	1.26e6	inactive
47	Vha100-3	DRSC05760	5.08e5		8.04e5		inactive
48	CG5569	DRSC04514	1.60e6	1.60e6	1.20e6	1.30e6	inactive
49	Ir75b	DRSC10189	1.28e6	1.33e6	1.23e6	1.32e6	inactive
50	RpL6	DRSC14323	1.03e6	1.09e6	6.63e5	7.81e5	active
51	snRNP-U1-C	DRSC15804	1.20e6	1.27e6	8.24e5	9.21e5	inactive
52	CG9555	DRSC03264	1.45e6	1.52e6	1.19e6	1.33e6	inactive
53	CG44422	DRSC18885	1.49e6	1.77e6	1.18e6	1.28e6	inactive
54	CG44422	DRSC19380	1.91e6	1.82e6	1.12e6	1.28e6	inactive
55	CG44422	DRSC19480	1.74e6	1.77e6	1.03e6	1.23e6	inactive
56	Tm2	DRSC16887	1.29e6	1.51e6	1.09e6	1.18e6	inactive
57	CG31674	DRSC03208	1.73e6	1.87e6	1.45e6	4.59e5	inactive
58	Kap-alpha1	DRSC11356	1.33e6	1.33e6	1.29e6	1.35e6	inactive
59	mRpS6	DRSC08470	1.59e6	1.50e6	9.89e5	1.14e6	inactive
